{
  "sequences": {"note": "The chains behind the UniProt entries cited, without tags or fusion partners.", "UniProt P33897": "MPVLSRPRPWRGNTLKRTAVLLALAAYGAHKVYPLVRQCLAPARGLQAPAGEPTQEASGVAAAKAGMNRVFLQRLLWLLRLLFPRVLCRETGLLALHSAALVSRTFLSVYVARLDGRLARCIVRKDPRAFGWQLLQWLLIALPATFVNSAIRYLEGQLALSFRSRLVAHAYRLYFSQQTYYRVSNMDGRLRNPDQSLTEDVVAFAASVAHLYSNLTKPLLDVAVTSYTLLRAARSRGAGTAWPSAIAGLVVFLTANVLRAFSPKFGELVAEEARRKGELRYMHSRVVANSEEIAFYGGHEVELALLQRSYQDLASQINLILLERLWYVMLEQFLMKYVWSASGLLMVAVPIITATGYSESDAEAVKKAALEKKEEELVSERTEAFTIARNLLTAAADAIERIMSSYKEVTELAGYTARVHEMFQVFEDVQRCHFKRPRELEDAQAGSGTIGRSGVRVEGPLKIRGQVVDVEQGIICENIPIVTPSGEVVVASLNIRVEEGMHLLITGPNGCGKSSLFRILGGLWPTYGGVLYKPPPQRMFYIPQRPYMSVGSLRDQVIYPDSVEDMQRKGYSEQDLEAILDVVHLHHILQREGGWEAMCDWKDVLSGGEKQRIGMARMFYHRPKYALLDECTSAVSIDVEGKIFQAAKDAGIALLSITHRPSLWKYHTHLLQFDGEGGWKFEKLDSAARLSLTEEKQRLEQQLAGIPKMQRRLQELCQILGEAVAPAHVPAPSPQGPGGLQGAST"},
  "source": "paper PMC8113721",
  "target": "His-ABCD1 (UniProt P33897)",
  "test": "pull-down; eluates (15 μg each) mixed, rotated at 4 °C for 15 min, incubated with His-tag affinity resin overnight at 4 °C; wash 50 mM Tris–HCl pH 7.5, 300 mM NaCl, 0.1% β-DDM; immunoblot with anti-His or anti-GST; both purified",
  "note": "Results are given in words; binding and its absence hold for the method and conditions named. Sequences can lack the tags named with a protein.",
  "data": [
    {"binder": "glutathione-S-transferase (GST)–tagged LMBD1 (protein, UniProt Q9NUN5 1-540) MATSGAASAELVIGWCIFGLLLLAILAFCWIYVRKYQSRRESEVVSTITAIFSLAIALITSALLPVDIFLVSYMKNQNGTFKDWANANVSRQIEDTVLYGYYTLYSVILFCVFFWIPFVYFYYEEKDDDDTSKCTQIKTALKYTLGFVVICALLLLVGAFVPLNVPNNKNSTEWEKVKSLFEELGSSHGLAALSFSISSLTLIGMLAAITYTAYGMSALPLNLIKGTRSAAYERLENTEDIEEVEQHIQTIKSKSKDGRPLPARDKRALKQFEERLRTLKKRERHLEFIENSWWTKFCGALRPLKIVWGIFFILVALLFVISLFLSNLDKALHSAGIDSGFIIFGANLSNPLNMLLPLLQTVFPLDYILITIIIMYFIFTSMAGIRNIGIWFFWIRLYKIRRGRTRPQALLFLCMILLLIVLHTSYMIYSLAPQYVMYGSQNYLIETNITSDNHKGNSTLSVPKRCDADAPEDQCTVTRTYLFLHKFWFFSAAYYFGNWAFLGVFLIGLIVSCCKGKKSVIEGVDEDSDISDDEPSVYSA", "values": [
      {"measurement": "binding", "value": "no binding"}
    ]}
  ]
}
